Experimental data: PubChem BioAssay AID1259315 (Drosophila RNAi Screening Center, 2017)
Test: 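Fly genes changing cellular ATP after a day in high zinc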 (primary screen). System: Drosophila S2R+ cells. Knock-down reagent: long dsRNA against Drosophila genes. Time to read-out: 5 days (4 days knock-down, then 1 day with zinc). Challenge: zinc chloride added to 15 mM final for 1 day. Measured: 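ATP luminescence reflecting cell viability after 4 days of knock-down then 1 day with 15 mM zinc chloride; mean z-score of two replicate plates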. Reading the numbers: mean ATP z-score: higher = more ATP, more cells surviving zinc. Rule for the call: 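Hit when the mean ATP z-score exceeds 1.5 or falls below -1.5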.
The deposit covers 418 reagents; shown is a random part of them. 17 of them (4.1%) were called active. 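z-scores average two replicate plates; all hits raised ATP and none lowered it.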 Reagent sequences are not shown. The record does not give: the amount of reagent.

For Pex5 (GeneID 31141) [DRSC18552] the deposit lists mean ATP z-score -0.173; inactive.
For Pex5 (GeneID 31141) [DRSC26136] the deposit lists mean ATP z-score -0.384; inactive.
Pex5 (GeneID 31141) [DRSC34058] scored mean ATP z-score 0.202; inactive.
Against Hgsnat (GeneID 31423) [DRSC18405] the deposit lists mean ATP z-score -0.348; inactive.
For Hgsnat (GeneID 31423) [DRSC24716] the deposit lists mean ATP z-score -0.235; inactive.
Against Hgsnat (GeneID 31423) [DRSC37969] the deposit lists mean ATP z-score -0.301; inactive.
Against CG5065 (GeneID 36860) [DRSC06912], the entry reads mean ATP z-score -0.204; inactive.
For fdl (GeneID 250735) [DRSC07279], the values are mean ATP z-score -0.115; inactive.
With knock-down of fdl (GeneID 250735) [DRSC26852], the record shows mean ATP z-score -0.295; inactive.
Gnpat (GeneID 53586) [DRSC16960] showed mean ATP z-score -0.204; inactive.
Gnpat (GeneID 53586) [DRSC40415] showed mean ATP z-score -0.178; inactive.
Idh (GeneID 44291) [DRSC10779] showed mean ATP z-score -0.216; inactive.
Against Idh (GeneID 44291) [DRSC34441], the values are mean ATP z-score -0.166; inactive.
Against Idh (GeneID 44291) [DRSC34442], the entry reads mean ATP z-score 0.0848; inactive.
CG12672 (GeneID 32781) [DRSC24282] showed mean ATP z-score -0.247; inactive.
CatB (GeneID 34198) [DRSC03194] gave mean ATP z-score -0.226; inactive.
With knock-down of CatB (GeneID 34198) [DRSC24516], the screen gave mean ATP z-score -0.199; inactive.
For CatB (GeneID 34198) [DRSC38069] the deposit lists mean ATP z-score -0.271; inactive.
After knock-down of LManI (GeneID 34436) [DRSC24754], the record shows mean ATP z-score -0.182; inactive.
Against LManI (GeneID 34436) [DRSC39016] the deposit lists mean ATP z-score -0.226; inactive.
Silencing of LManI (GeneID 34436) [DRSC41065] gave: mean ATP z-score -0.246; inactive.

Sorted by “mean ATP z-score” (high to low): some entries from above
Idh (GeneID 44291) [DRSC34442] | mean ATP z-score: 0.0848; activity call: inactive
Idh (GeneID 44291) [DRSC34441] | mean ATP z-score: -0.166; activity call: inactive
LManI (GeneID 34436) [DRSC24754] | mean ATP z-score: -0.182; activity call: inactive
CatB (GeneID 34198) [DRSC24516] | mean ATP z-score: -0.199; activity call: inactive
Idh (GeneID 44291) [DRSC10779] | mean ATP z-score: -0.216; activity call: inactive
CatB (GeneID 34198) [DRSC03194] | mean ATP z-score: -0.226; activity call: inactive
LManI (GeneID 34436) [DRSC39016] | mean ATP z-score: -0.226; activity call: inactive
LManI (GeneID 34436) [DRSC41065] | mean ATP z-score: -0.246; activity call: inactive
CG12672 (GeneID 32781) [DRSC24282] | mean ATP z-score: -0.247; activity call: inactive
CatB (GeneID 34198) [DRSC38069] | mean ATP z-score: -0.271; activity call: inactive

More entries:
AP-1-2beta (GeneID 32987) [DRSC19336] scored mean ATP z-score -0.215; inactive.
AP-1-2beta (GeneID 32987) [DRSC23868] scored mean ATP z-score -0.253; inactive.
Silencing of AP-1-2beta (GeneID 32987) [DRSC31080] gave: mean ATP z-score 0.00474; inactive.
Depletion of vsg (GeneID 39137) [DRSC25227] resulted in: mean ATP z-score -0.174; inactive.
Knock-down of Rgk1 (GeneID 14462605) [DRSC05785] gave: mean ATP z-score 0.0466; inactive.
Against Rgk1 (GeneID 14462605) [DRSC23535], the values are mean ATP z-score -0.348; inactive.
Rgk1 (GeneID 14462605) [DRSC37293] gave mean ATP z-score -0.265; inactive.
With knock-down of Vps45 (GeneID 41153) [DRSC16398] the results were mean ATP z-score 0.0831; inactive.
For Vps45 (GeneID 41153) [DRSC34819] the deposit lists mean ATP z-score -0.196; inactive.
After knock-down of Vps45 (GeneID 41153) [DRSC37502], the screen gave mean ATP z-score -0.235; inactive.
Depletion of CG17597 (GeneID 35140) [DRSC02630] gave: mean ATP z-score -0.223; inactive.
With knock-down of CG17597 (GeneID 35140) [DRSC24788], the screen gave mean ATP z-score -0.303; inactive.
With knock-down of Npc1a (GeneID 34358) [DRSC03378], the screen gave mean ATP z-score 0.0752; inactive.
Npc1a (GeneID 34358) [DRSC33330] scored mean ATP z-score -0.286; inactive.
Knock-down of Npc1a (GeneID 34358) [DRSC39428] came out at: mean ATP z-score -0.261; inactive.
With knock-down of Npc2a (GeneID 33374) [DRSC00698], the screen gave mean ATP z-score -0.12; inactive.
For Npc2h (GeneID 43649) [DRSC14297], the values are mean ATP z-score -0.0308; inactive.
Against VhaPPA1-1 (GeneID 45247) [DRSC24144], the values are mean ATP z-score 0.383; inactive.
Against VhaPPA1-1 (GeneID 45247) [DRSC32232], the values are mean ATP z-score -0.00483; inactive.
VhaPPA1-1 (GeneID 45247) [DRSC32233] showed mean ATP z-score 0.118; inactive.
After knock-down of hay (GeneID 39202) [DRSC11354], the record shows mean ATP z-score 2.18; active.
For hay (GeneID 39202) [DRSC35779], the values are mean ATP z-score 4.24; active.
After knock-down of hay (GeneID 39202) [DRSC37557] the results were mean ATP z-score 1.13; inactive.
Against Lerp (GeneID 43223) [DRSC14751] the deposit lists mean ATP z-score 0.0229; inactive.
Knock-down of Lerp (GeneID 43223) [DRSC16030] resulted in: mean ATP z-score -0.204; inactive.
Depletion of Lerp (GeneID 43223) [DRSC16031] resulted in: mean ATP z-score -0.0317; inactive.
mei-9 (GeneID 31373) [DRSC18792] scored mean ATP z-score 0.112; inactive.
Knock-down of CG1827 (GeneID 35989) [DRSC06719] gave: mean ATP z-score -0.202; inactive.
For Tsp42Ea (GeneID 59178) [DRSC04982] the deposit lists mean ATP z-score -0.0318; inactive.
Knock-down of Tsp42Ea (GeneID 59178) [DRSC06792] came out at: mean ATP z-score 0.0369; inactive.
CG1607 (GeneID 43707) [DRSC15130] scored mean ATP z-score -0.177; inactive.
With knock-down of CG1607 (GeneID 43707) [DRSC27010] the results were mean ATP z-score -0.27; inactive.
With knock-down of Had2 (GeneID 36624) [DRSC05971], the screen gave mean ATP z-score 0.0687; inactive.
Depletion of Had2 (GeneID 36624) [DRSC26955] came out at: mean ATP z-score 0.57; inactive.
After knock-down of CG12268 (GeneID 42833) [DRSC14491], the record shows mean ATP z-score 0.346; inactive.
CG12268 (GeneID 42833) [DRSC28755] scored mean ATP z-score -0.118; inactive.
Knock-down of Pex11ab (GeneID 36758) [DRSC07145] gave: mean ATP z-score -0.21; inactive.
Depletion of LManIII (GeneID 34203) [DRSC03221] gave: mean ATP z-score 1.2; inactive.
For LManIII (GeneID 34203) [DRSC29001] the deposit lists mean ATP z-score -0.336; inactive.
Against LManIII (GeneID 34203) [DRSC35602] the deposit lists mean ATP z-score -0.152; inactive.
